# Measured values reported in PubChem BioAssay AID588590 (National Center for Advancing Translational Sciences (NCATS), 2011).
# By UniProt entry, the sequences of proteins in these tests, tags left out. Where a name states a change or a piece, a line headed by the entry shows the natural chain unless it says otherwise.
# UniProt Q9UNA4: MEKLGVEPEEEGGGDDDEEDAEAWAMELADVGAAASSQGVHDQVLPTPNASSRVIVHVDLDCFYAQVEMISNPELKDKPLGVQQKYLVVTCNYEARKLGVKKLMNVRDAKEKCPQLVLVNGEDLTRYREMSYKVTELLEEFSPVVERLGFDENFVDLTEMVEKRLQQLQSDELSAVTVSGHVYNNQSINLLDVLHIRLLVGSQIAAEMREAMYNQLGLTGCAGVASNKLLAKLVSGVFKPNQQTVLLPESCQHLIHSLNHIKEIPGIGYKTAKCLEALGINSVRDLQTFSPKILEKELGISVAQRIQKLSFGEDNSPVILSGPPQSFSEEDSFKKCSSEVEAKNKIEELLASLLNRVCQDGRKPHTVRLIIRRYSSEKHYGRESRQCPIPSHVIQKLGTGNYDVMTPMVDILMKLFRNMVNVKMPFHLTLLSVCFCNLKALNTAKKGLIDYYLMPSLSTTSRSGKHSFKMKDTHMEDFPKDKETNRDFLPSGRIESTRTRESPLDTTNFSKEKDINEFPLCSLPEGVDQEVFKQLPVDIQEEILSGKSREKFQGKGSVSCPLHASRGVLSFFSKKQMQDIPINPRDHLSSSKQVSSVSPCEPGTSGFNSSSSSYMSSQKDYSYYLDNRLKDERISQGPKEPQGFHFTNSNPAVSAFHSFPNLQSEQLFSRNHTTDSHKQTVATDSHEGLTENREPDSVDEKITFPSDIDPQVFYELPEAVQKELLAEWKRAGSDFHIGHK
# Out of some 390,000 compounds screened, about 4,000 (1%) were called active. Inconclusive results, whose numbers are uncertain, are shown with a selection of clear calls. The call rests on the fitted dose curve; in most records, active means well fitted inhibition curve with a large enough effect; inconclusive means small, poorly fitted or top-dose-only effect, or another doubt; inactive means no such curve, though single readings can be large or run the other way. Potencies beside an inconclusive call are fits to weak or partial responses and may not hold up. Some compounds were tested as several samples or in several runs, with calls that do not always agree.
# Target: DNA polymerase iota (Homo sapiens) (UniProt Q9UNA4)
# Assay: qHTS for Inhibitors of Polymerase Iota
# Conditions: Pol iota fluorescent replication assay, 10 min; series mostly up to 115 µM
# Summary of the method: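 Fluorescent replication assay read twice, at 0 min and 10 min after adding 50 nM (final) substrate. Enzyme (10 nM) and compounds were first incubated 15 min at room temperature; enzyme-free buffer wells were negative controls.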
# Potency means the concentration at half of the fitted maximal effect.
row,SMILES,Potency
1,Cc1c(C)c2ccc(OCC(=O)NC(Cc3c[nH]c4ccc(O)cc34)C(=O)O)c(C)c2oc1=O (stereo not given),inactive
2,COc1ccc(OC)c(-c2cc(C(=O)NCCCn3ccnc3)no2)c1,"inconclusive: 100 µM [inhibitor, single point]"
3,COc1ccc(CN2C(=O)c3cccnc3C2Nc2cc(Cl)ccc2OC)cc1 (stereo not given),"inconclusive: 2.51 µM [inhibitor, full curve, poor fit]"
4,COc1cccc(NC(=O)CSc2nc(C3CC3)nc3ccccc23)c1,"inconclusive: 25.1 µM [inhibitor, single point]"
5,C=CCN1C(=O)/C(=C2/Sc3ccc(OC)cc3N2CC)SC1=S,"inconclusive: 44.7 µM [inhibitor, single point]"
6,O=C(c1ccc(COc2ccccc2Br)o1)N1CCCCCC1,"inconclusive: 31.6 µM [inhibitor, partial curve, poor fit]"
7,CCOC(=O)/C=c1\s/c(=C\c2ccc(C(F)(F)F)cc2)c(=O)n1CC(=O)NCc1ccco1,"inconclusive: 35.5 µM [inhibitor, partial curve, poor fit]"
8,O=C(/C=C/c1ccco1)Nc1scc(-c2ccccc2)c1C(=O)O,active: 28.2 µM
9,COc1cccc2oc3ccc(C#CC4(N)CCCCC4)cc3c(=O)c12,"inconclusive: 25.1 µM [inhibitor, partial curve, poor fit]"
10,C#CCOCCOCCOCCNc1nc(N2CCN(C(=O)CCCCCCCCCCNC(=O)[C@@H](CCC(=O)O)n3cc(CCCCCN)nn3)CC2)nc(N2CCN(C(=O)CCCCCCCCCCNC(=O)[C@H](CO)n3cc(CCCSC)nn3)CC2)n1,"inconclusive: 31.6 µM [inhibitor, single point]"
11,O=C(COC(=O)c1cccs1)Nc1cccc(S(=O)(=O)N2CCOCC2)c1,"inconclusive: 100 µM [inhibitor, partial curve, poor fit]"
12,Cc1ccnc(NC(=S)NC(=O)/C=C/c2ccco2)c1,"inconclusive: 14.1 µM [inhibitor, full curve, poor fit]"
13,CN(CC(=O)Nc1ccccc1Cl)C(=O)CSc1nnc(N)s1,"inconclusive: 56.2 µM [inhibitor, partial curve, poor fit]"
14,O=S(=O)(O)c1ccc(O)c2cc(Nc3ccccc3)ccc12,"inconclusive: 1.26 µM [inhibitor, full curve, poor fit]"
15,Cc1ccc(/C=C/C(=O)Nc2nnc(C)s2)o1,"inconclusive: 126 µM [inhibitor, single point]"
16,Cc1[nH]n(-c2ccccc2)c(=O)c1S(=O)(=O)c1ccccc1,"inconclusive: 2.82 µM [inhibitor, full curve, poor fit]"
17,Cc1cccc(-n2nnc(C(=O)NCc3ccccn3)c2N)c1,"inconclusive: 15.8 µM [inhibitor, partial curve, poor fit]"
18,O=C(CSc1nnc(CNc2cccc(C(F)(F)F)c2)n1Cc1ccco1)NCc1ccco1,inactive
19,COC(=O)c1cc(NC(=O)Nc2cccc(Cl)c2)ccc1Cl,"inconclusive: 50.1 µM [inhibitor, full curve]"
20,Brc1ccc(C2=Nc3cccc4cccc(c34)N2)o1,"inconclusive: 15.8 µM [inhibitor, partial curve, poor fit]"

row,SMILES,Potency
1,Cc1ccc(C(=O)Nc2ccc(C(=O)N/N=C/c3ccccn3)cc2)cc1,"inconclusive: 39.8 µM [inhibitor, single point]"
2,COc1ccc(S(=O)(=O)N2CCCCC2)cc1NC(=O)C1CC(=O)N(Cc2ccco2)C1 (stereo not given),"inconclusive: 44.7 µM [inhibitor, partial curve]"
3,N#C/C(=C\c1ccc(O)c(O)c1)C(=O)Nc1ccccc1,active: 56.2 µM
4,COc1ccc([N+](=O)[O-])cc1NC(=O)C(C)OC(=O)CN1C(=O)C2CC=CCC2C1=O (stereo not given),"inconclusive: 89.1 µM [inhibitor, single point]"
5,COc1ccccc1C(=O)Nc1ccnn1C1CCN(Cc2cnc(N(C)C)s2)CC1,inactive
6,COC(=O)c1ccc(COc2ccccc2/C=N/Nc2cccc(C(=O)O)c2)cc1,"inconclusive: 10 µM [inhibitor, full curve]"
7,O=C(COC(=O)c1ccc(S(=O)(=O)NCc2ccco2)cc1)Nc1ccccc1,inactive
8,COc1ccc2c(c1OC)C(=O)OC2Nc1nc(-c2cc3cc([N+](=O)[O-])ccc3oc2=O)cs1 (stereo not given),"inconclusive: 39.8 µM [inhibitor, partial curve]"
9,O=C1c2ccccc2C(=O)C12OC2c1cccc2ccccc12 (stereo not given),active: 3.55 µM
10,Cc1ccc(-c2nnc(SCC(=O)NCCC(C)C)nc2-c2ccc(C)cc2)cc1,"inconclusive: 25.1 µM [inhibitor, partial curve]"
11,Cc1cccc(Cc2c(C)nc3c(C(=O)NCc4ccco4)cnn3c2C)c1,"inconclusive: 15.8 µM [inhibitor, full curve, poor fit]"
12,CS(=O)(=O)N(Cc1ccccc1)c1ccc(C(=O)NCCSCc2ccco2)cc1,"inconclusive: 31.6 µM [inhibitor, partial curve]"
13,Cc1cccc(NC(=O)/C(C#N)=C\c2ccc(C(=O)O)cc2)c1,"inconclusive: 14.1 µM [inhibitor, full curve, poor fit]"
14,CCOC(=O)c1c(C)[nH]c(=S)c(C#N)c1-c1ccc(Cl)cc1,active: 79.4 µM
15,CCOc1cccc(/C=N/NC(=O)CC2C(=O)NN=C2C)c1O (stereo not given),inactive
16,O=C1Nc2ccccc2C1=NN1CCCCCC1,inactive
17,CN(C(=O)C1CCCO1)c1nnc(-c2cnccn2)s1 (stereo not given),"inconclusive: 2.24 µM [inhibitor, partial curve, poor fit]"
18,COc1ccc2[nH]c3c(NCc4ccco4)ncnc3c2c1,active: 79.4 µM
19,CC(=O)Nc1ccn(C2CC3OCC(NC(=O)C(Cc4ccccc4)NC(=O)OC(C)(C)C)C3O2)c(=O)n1 (stereo not given),inactive
20,C#Cc1ccc([C@@H]2C=C(C(=O)N3CCN(Cc4ccc5c(c4)OCO5)CC3)O[C@H](OCCCCO)C2)cc1,"inconclusive: 79.4 µM [inhibitor, partial curve, poor fit]"

# A section taken from the entries so far:
row,SMILES,Potency
6,O=C(c1ccc(COc2ccccc2Br)o1)N1CCCCCC1,"inconclusive: 31.6 µM [inhibitor, partial curve, poor fit]"
7,CCOC(=O)/C=c1\s/c(=C\c2ccc(C(F)(F)F)cc2)c(=O)n1CC(=O)NCc1ccco1,"inconclusive: 35.5 µM [inhibitor, partial curve, poor fit]"
